Entries after “also recorded” stand apart in the source; their conditions may differ. At least one structure is not confirmed: it was looked up by name or label, or the drawing left a doubt.
Experiments:
AMPK [1] = settings: recent report (Wang et al. 2008); cited from earlier work
PPARγ = biological target: T1, PPARγ (Homo sapiens, UniProt P37231); experiment: PPRE luciferase reporter assay of PPARγ activation in THP-1 cells; format: cell-based; settings: 10 μM, 48 h, PPRE-x3-TK-Luc-transfected THP-1
T1 construct: transiently transfected by nucleofection with the PPRE-x3-TK-Luc reporter plasmid; endogenous in cells; host or cells: PMA-differentiated THP-1 macrophages
T1 sequence (P37231 1-505): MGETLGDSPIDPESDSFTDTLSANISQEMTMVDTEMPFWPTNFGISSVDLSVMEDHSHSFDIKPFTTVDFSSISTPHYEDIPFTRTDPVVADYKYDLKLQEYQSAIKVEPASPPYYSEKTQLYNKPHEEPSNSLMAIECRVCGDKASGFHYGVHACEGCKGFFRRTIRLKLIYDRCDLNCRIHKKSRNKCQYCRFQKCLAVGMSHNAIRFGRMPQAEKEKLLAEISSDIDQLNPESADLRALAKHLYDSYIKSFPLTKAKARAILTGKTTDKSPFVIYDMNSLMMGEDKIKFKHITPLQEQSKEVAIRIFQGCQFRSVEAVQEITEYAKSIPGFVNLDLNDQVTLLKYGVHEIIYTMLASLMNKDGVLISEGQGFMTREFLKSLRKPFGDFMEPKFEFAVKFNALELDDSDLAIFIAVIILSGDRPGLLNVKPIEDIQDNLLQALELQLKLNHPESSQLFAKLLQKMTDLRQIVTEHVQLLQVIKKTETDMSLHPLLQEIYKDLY

AMPK [2] = experiment: Western blot of AMPK phosphorylation in LPS-treated THP-1 macrophages; format: cell-based, human; settings: 10 μM, 6 h
Protocol: Western blotting. THP-1 cells were lysed in SDS-sample buffer after washing with iced-PBS buffer, and then heated at 95° C. for 20 minutes. Protein extracts were prepared using M-PER mammalian protein extraction reagent (Pierce, Rockford, Ill.), containing freshly added 1% phosphatase and protease inhibitor cocktails (Calbiochem). After centrifugation of lysates at 13000 g for 10 min, supernatants were collected, and the protein concentration in each sample was determined by protein assay (Bio-Rad). Protein extracts were then suspended in 2×SDS sample buffer, separated by electrophoresis in 10% SDS-polyacrylamide gels, and transferred to nitrocellulose membranes using a semidry transfer cell. The transblotted membrane was washed twice with Tris-buffered saline containing 0.1% Tween-20 (TBST). After blocking with TBST containing 5% nonfat milk for 1 h, the membrane was incubated with primary antibodies: p172Thr-AMPK, AMPK, p705Tyr-STAT3 and STAT3 (Cell Signaling Technology; Beverly, Mass.); p389Thr-p70S6K and p70S6K (Santa Cruz Biotechnology; Santa Cruz, Calif.), each at 1:1,000 dilution in 1% TBST-nonfat milk at 4° C. overnight. After incubation with the primary antibody, the membrane was washed three times with TBST for a total of 30 min, followed by incubation with horseradish peroxidase-conjugated goat anti-mouse IgG (diluted 1:2500) for 1 h at room temperature. […]

[3] = system: LPS-stimulated IL-6 production in THP-1 macrophages; experiment: ELISA of LPS-stimulated IL-6 production in THP-1 macrophages; format: cell-based, human; settings: 6 h
Protocol: Cells and cell culture. THP-1 monocytic cells were purchased from the American Type Culture Collection (Rockville, Md.), and maintained with L-glutamine-containing RPMI 1640 supplemented with 10% fetal bovine serum (FBS), 0.25% glucose, 0.01% sodium pyruvate, 50 μM 2-mercaptoethanol, and 0.1 ml/ml penicillin/streptomycin/L-glutamine. Differentiation of THP-1 monocytes into macrophages was carried out by exposure to PMA (50 nM) in the aforementioned RPMI 1640 medium for 24 h. Colon-26 (C-26) adenocarcinoma cells were provided by a researcher at The Ohio State University. The C-26 cells were maintained in RPMI 1640 medium supplemented with 5% FBS and 1% penicillin/streptomycin.
ELISA. IL-6 release by differentiated THP-1 macrophages in response to 10 ng/ml of LPS was analyzed by using the IL-6 ELISA kit (Cayman Chemical Co.; Ann Arbor, Mich.) according to the manufacturer's instruction in triplicate. The effect of each test compound on LPS-stimulated IL-6 release is presented as percent inhibition and was calculated using the following formula: percentage inhibition=100%×{1−[(O.D. of sample−O.D. of control)/(O.D. of LPS−O.D. of control)]}.

CC1(COc2ccc(CC3SC(=O)NC3=O)cc2)CCCCC1 (centres unmarked) [ciglitazone, reference compound]
dose required to activate AMPK (AMPK [1]): ≥ 100 µM | PPARγ activation (PPRE luciferase activity) (PPARγ): significantly increased luciferase activity | AMPK activation (p-AMPK level) (AMPK [2]): no appreciable effect; also recorded: without affecting AMPK phosphorylation status | effect on LPS-stimulated IL-6 production ([3]; 10 μM, LPS-stimulated THP-1): effective in inhibiting IL-6 production | potency in inhibiting LPS-stimulated IL-6 production relative to 62 ([3]; THP-1 macrophages): several-fold higher potency
